Assay results taken from PMC9433385.
These are yes or no findings as the source states them, for the method shown. For some assays here: Binding seen in cells or lysates may run through a third protein. Some results given as binding are weak or reduced against the parent protein; the word gives no strength. For some assays here: Where a sequence is shown, tags or fusion partners need not be part of it.

Sequences of proteins named here, by UniProt entry; tags and fusion partners are left off.
UniProt Q99J09: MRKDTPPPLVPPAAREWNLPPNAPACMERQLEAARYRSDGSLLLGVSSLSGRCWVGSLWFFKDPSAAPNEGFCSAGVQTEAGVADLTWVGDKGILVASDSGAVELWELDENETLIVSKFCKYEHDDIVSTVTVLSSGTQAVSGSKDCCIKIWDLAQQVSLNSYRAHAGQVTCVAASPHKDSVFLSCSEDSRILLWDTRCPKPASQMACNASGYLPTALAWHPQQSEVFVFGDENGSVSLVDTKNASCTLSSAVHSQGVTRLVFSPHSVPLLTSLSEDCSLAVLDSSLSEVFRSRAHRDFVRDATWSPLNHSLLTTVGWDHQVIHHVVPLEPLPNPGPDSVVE
UniProt A2A432: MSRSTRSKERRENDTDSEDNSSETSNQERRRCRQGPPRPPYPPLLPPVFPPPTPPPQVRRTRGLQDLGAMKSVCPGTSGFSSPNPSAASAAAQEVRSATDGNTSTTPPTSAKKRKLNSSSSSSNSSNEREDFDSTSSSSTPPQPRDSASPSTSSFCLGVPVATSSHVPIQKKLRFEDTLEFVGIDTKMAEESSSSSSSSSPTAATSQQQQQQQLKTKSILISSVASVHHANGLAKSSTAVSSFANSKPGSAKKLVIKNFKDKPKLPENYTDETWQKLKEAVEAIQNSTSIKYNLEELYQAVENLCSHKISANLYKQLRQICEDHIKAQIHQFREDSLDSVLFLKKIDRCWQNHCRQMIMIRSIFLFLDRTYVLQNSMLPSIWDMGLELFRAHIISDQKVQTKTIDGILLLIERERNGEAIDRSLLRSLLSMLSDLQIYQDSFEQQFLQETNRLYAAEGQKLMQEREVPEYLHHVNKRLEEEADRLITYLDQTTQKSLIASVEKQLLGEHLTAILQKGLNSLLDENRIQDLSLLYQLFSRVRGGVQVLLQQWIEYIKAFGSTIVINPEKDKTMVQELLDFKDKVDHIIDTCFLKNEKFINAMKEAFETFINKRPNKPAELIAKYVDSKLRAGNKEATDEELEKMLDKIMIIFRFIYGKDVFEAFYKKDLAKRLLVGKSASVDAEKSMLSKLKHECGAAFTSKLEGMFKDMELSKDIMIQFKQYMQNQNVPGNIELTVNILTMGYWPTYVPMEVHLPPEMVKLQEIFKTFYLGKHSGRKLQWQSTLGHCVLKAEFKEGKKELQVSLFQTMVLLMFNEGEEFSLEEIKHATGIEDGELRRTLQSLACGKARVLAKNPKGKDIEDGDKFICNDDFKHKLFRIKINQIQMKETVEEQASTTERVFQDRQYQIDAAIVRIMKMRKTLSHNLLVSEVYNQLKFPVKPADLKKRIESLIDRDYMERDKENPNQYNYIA

B1: His-IRGM1 (protein, UniProt Q60766 1-409)
chain: MKPSHSSCEAAPLLPNMAETHYAPLSSAFPFVTSYQTGSSRLPEVSRSTERALREGKLLELVYGIKETVATLSQIPVSIFVTGDSGNGMSSFINALRVIGHDEDASAPTGVVRTTKTRTEYSSSHFPNVVLWDLPGLGATAQTVEDYVEEMKFSTCDLFIIIASEQFSSNHVKLSKIIQSMGKRFYIVWTKLDRDLSTSVLSEVRLLQNIQENIRENLQKEKVKYPPVFLVSSLDPLLYDFPKLRDTLHKDLSNIRCCEPLKTLYGTYEKIVGDKVAVWKQRIANESLKNSLGVRDDDNMGECLKVYRLIFGVDDESVQQVAQSMGTVVMEYKDNMKSQNFYTLRREDWKLRLMTCAIVNAFFRLLRFLPCVCCCLRRLRHKRMLFLVAQDTKNILEKILRDSIFPPQI
B2: immunity-related GTPase family M member 1 (IRGM1) (protein, UniProt Q60766 1-409)
chain: B1 chain

Assays:
[1] = target: GST-WDR77 (UniProt Q99J09); test: pull-down; purified GST-WDR77 mixed with purified His-tagged protein (25 mM Tris 7.6, 150 mM NaCl, 1 mM DTT), captured with anti-WDR77 antibody and protein A/G sepharose, 2 h at 4 °C; Western blot; both purified
[2] = target: CUL4B (mouse (endogenous in small intestine)) (UniProt A2A432); test: co-IP; protein extracted from small intestine of mice, immunoprecipitated with the indicated antibodies individually and protein A/G sepharose, 2 h at 4 °C; Western blot

| Binder | binding [1] | binding [2] |
| --- | --- | --- |
| B1 | binds |  |
| B2 |  | binds |
